Laboratory results from the supplement of paper PMC10849652.
The list shows a part of the results.

Sequences of proteins named here, by UniProt entry; tags and fusion partners are left off. A change or cut given only in a name is not applied to a line headed by its entry.
UniProt P38570: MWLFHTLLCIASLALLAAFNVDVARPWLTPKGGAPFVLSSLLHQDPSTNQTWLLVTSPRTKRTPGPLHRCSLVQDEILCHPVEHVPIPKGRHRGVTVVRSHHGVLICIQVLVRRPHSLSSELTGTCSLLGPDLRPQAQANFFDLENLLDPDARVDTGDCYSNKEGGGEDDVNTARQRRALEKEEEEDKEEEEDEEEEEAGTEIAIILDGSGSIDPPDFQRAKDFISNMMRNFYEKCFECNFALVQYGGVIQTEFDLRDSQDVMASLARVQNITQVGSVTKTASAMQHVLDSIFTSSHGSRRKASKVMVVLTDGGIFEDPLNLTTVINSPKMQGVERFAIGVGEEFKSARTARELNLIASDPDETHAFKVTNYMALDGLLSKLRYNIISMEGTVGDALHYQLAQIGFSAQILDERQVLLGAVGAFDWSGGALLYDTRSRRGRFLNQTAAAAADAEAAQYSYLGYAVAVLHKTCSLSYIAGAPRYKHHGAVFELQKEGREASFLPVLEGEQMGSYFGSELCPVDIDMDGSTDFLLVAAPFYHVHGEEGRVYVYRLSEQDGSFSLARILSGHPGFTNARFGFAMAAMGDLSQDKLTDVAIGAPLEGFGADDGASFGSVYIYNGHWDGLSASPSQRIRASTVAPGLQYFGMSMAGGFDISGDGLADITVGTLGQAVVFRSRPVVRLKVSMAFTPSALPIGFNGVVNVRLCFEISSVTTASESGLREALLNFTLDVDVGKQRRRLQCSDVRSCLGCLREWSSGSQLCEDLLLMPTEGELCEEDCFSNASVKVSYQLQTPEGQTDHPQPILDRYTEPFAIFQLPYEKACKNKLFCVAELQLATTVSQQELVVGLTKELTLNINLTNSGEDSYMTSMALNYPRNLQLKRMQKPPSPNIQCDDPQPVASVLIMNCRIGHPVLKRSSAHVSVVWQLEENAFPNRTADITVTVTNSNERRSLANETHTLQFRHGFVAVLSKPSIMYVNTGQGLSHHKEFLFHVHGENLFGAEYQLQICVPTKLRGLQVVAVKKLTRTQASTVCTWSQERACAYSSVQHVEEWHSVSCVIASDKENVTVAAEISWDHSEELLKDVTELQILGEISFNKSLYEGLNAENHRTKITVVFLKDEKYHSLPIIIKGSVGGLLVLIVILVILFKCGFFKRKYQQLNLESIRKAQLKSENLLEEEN
UniProt Q9H8E8: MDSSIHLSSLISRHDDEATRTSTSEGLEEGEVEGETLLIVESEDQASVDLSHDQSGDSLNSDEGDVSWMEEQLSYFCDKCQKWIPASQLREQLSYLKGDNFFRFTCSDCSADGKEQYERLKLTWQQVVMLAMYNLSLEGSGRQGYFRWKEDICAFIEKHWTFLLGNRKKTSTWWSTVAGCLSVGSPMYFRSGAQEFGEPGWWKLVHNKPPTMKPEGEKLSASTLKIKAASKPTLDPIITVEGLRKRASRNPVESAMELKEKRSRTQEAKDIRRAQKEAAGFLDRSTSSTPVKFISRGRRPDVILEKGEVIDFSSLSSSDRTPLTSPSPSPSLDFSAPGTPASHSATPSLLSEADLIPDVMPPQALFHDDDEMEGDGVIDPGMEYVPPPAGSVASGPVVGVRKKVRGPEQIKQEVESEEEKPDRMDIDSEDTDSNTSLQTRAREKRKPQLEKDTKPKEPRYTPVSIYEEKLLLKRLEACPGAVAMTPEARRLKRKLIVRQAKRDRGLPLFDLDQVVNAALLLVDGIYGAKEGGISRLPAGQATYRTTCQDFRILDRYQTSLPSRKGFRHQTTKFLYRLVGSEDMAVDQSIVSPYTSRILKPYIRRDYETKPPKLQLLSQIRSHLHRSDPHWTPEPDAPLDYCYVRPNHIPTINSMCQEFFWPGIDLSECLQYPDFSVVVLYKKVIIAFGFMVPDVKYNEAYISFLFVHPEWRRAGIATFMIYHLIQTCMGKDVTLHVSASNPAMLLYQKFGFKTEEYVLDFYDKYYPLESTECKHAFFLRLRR
UniProt Q14681: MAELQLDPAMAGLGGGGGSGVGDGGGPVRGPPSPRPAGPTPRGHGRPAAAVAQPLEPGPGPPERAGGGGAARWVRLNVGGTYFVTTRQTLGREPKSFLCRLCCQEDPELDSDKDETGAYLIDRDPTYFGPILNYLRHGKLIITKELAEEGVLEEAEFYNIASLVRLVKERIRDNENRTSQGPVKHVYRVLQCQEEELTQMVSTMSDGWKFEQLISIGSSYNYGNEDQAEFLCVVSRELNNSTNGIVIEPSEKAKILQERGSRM
UniProt Q92993, whole entry, looked up: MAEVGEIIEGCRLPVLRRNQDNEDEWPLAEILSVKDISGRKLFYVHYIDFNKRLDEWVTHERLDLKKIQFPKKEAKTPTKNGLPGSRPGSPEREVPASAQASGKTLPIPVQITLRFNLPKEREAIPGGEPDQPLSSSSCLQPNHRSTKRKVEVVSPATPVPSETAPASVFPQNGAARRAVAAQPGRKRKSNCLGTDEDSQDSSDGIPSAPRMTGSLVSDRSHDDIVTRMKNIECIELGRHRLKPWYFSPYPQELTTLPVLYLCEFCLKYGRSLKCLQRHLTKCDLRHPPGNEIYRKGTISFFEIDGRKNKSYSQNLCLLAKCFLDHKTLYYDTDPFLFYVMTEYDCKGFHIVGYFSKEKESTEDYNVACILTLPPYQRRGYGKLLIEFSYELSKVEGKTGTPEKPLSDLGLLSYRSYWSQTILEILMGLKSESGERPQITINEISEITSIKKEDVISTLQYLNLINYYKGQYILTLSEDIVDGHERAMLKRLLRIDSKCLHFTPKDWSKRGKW
UniProt Q86VI3: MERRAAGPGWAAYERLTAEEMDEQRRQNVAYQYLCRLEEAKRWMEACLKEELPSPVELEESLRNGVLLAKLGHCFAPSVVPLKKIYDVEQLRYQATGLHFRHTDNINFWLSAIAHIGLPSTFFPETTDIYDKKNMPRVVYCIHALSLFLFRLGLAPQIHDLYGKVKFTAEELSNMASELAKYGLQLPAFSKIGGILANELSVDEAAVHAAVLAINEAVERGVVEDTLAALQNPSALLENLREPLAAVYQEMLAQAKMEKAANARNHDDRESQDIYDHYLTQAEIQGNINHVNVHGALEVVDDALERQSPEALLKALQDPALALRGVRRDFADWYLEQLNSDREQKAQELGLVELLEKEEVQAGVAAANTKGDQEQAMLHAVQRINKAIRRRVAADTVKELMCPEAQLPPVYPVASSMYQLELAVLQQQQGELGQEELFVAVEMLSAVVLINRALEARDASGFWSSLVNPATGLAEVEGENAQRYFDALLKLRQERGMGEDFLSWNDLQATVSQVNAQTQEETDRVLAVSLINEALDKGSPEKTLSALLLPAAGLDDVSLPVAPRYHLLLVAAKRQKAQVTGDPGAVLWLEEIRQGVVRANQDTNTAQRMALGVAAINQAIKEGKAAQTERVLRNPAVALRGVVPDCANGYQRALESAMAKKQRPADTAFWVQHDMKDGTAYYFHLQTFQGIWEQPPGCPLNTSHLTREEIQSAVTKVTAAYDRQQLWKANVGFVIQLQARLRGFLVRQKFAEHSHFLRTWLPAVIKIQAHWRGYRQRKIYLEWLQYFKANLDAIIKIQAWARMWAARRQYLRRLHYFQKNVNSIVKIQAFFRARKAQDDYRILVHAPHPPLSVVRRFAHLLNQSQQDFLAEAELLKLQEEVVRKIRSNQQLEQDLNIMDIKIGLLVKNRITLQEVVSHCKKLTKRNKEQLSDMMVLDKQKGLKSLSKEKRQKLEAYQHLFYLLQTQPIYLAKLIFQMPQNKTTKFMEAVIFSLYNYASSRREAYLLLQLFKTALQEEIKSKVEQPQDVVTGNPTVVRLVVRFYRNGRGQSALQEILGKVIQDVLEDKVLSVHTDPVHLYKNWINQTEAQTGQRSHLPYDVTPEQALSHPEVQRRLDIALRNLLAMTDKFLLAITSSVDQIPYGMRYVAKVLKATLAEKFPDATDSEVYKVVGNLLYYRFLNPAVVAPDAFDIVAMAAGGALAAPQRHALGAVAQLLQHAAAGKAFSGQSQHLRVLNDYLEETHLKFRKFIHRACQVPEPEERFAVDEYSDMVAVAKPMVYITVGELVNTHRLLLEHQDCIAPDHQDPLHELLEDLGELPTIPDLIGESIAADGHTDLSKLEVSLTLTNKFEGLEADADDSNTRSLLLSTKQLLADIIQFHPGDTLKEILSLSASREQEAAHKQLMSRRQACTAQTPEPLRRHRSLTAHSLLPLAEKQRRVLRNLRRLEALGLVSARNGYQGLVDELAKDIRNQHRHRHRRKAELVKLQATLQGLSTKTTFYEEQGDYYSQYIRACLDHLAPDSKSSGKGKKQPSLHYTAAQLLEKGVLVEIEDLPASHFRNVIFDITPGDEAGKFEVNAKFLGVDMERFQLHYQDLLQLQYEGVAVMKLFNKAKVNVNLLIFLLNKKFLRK
UniProt Q75QN2, whole entry, looked up: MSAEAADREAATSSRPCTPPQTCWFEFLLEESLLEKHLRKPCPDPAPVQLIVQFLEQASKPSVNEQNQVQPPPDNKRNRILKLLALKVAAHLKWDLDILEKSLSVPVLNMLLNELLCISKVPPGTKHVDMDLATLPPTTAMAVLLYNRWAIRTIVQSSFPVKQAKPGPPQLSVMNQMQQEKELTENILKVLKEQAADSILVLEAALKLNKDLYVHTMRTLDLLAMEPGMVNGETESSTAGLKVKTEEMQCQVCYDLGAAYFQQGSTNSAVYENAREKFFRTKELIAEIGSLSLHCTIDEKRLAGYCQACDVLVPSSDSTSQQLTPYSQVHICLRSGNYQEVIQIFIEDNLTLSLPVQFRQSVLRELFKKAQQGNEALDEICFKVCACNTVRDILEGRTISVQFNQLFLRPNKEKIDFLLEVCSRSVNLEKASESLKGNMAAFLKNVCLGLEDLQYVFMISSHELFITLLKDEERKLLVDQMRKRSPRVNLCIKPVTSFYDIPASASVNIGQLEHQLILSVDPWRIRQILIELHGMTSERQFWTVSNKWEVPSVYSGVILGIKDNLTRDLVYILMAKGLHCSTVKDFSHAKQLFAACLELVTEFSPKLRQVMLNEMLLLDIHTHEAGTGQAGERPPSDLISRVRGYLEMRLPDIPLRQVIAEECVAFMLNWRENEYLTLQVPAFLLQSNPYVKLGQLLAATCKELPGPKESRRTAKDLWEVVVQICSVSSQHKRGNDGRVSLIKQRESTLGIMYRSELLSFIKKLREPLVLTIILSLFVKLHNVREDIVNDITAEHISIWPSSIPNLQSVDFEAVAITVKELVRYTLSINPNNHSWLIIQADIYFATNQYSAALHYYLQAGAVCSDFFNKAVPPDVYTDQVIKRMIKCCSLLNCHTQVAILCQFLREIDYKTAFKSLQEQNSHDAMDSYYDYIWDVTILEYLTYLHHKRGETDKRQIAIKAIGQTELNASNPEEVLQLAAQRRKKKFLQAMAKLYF

Tests used:
Test in all cases: log2 fold change, soluble protein after heating vs DMSO (PISA); higher = thermal stabilisation; K562 lysate, 10 uM; active = over 0.2 and 3.5 SD of the protein, either way, in both replicates (recomputed)
vemurafenib = compound: CCCS(=O)(=O)Nc1ccc(F)c(C(=O)c2c[nH]c3ncc(-c4ccc(Cl)cc4)cc23)c1F [vemurafenib]
Method in brief: (§1)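 Log-two fold change in thermal stability relative to solvent controls is reported from duplicates. For each sample, crude K562 extract from dounce-homogenised pellets in PBS pH 7.4 with 1 mM MgCl2, at 1 mg/mL protein, was treated with 10 μM compound for 30 min. Aliquots heated for 3 min across 48°C-58°C were pooled, brought to 0.5% NP-40 at 4°C and cleared at 21,000xg for 90 min. The supernatant was quantified by TMTpro 16plex LC-MS/MS with channel sums equalised.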

[1] = compound: CCCS(=O)(=O)Nc1ccc(F)c(C(=O)c2c[nH]c3ncc(Cl)cc23)c1F
Method in brief: as §1

barasertib = compound: CCN(CCCOc1ccc2c(Nc3cc(CC(=O)Nc4cccc(F)c4)[nH]n3)ncnc2c1)CCOP(=O)(O)O [barasertib]
Method in brief: as §1

[2] = compound: CC[C@@H]1C(=O)N(C)c2cnc(Nc3ccc(C(=O)NC4CCN(C)CC4)cc3OC)nc2N1C1CCCC1
Method in brief: as §1

volasertib = compound: CC[C@@H]1C(=O)N(C)c2cnc(Nc3ccc(C(=O)N[C@H]4CC[C@H](N5CCN(CC6CC6)CC5)CC4)cc3OC)nc2N1C(C)C [volasertib]
Method in brief: as §1

[3] = compound: CCn1c(C(=O)N(C2CC2)C2CC2)cc2c3c(ncn3C)c(Nc3cc(C)n(C)n3)nc21
Method in brief: as §1

[4] = compound: CCn1cc(-c2ccnc3[nH]c(-c4cccc(CN(C)C)c4)cc23)c(-c2ccc(NC(=O)N(C)C)cc2)n1
Method in brief: as §1

[5] = compound: CN1CCC(CNc2ccc3ncc(-c4cccc(OC(F)(F)F)c4)n3n2)CC1
Method in brief: as §1

saracatinib = compound: CN1CCN(CCOc2cc(OC3CCOCC3)c3c(Nc4c(Cl)ccc5c4OCO5)ncnc3c2)CC1 [saracatinib]
Method in brief: as §1

sotrastaurin = compound: CN1CCN(c2nc(C3=C(c4c[nH]c5ccccc45)C(=O)NC3=O)c3ccccc3n2)CC1 [sotrastaurin]
Method in brief: as §1

alvocidib = compound: CN1CC[C@H](c2c(O)cc(O)c3c(=O)cc(-c4ccccc4Cl)oc23)[C@H](O)C1 [alvocidib]
Method in brief: as §1

Tubastatin A = compound: CN1CCc2c(c3ccccc3n2Cc2ccc(C(=O)NO)cc2)C1 [Tubastatin A]
Method in brief: as §1

[6] = compound: CNC(=O)C1=CC=CC=C1NC2=NC(=NC=C2Cl)NC3=C(C=C(C=C3)N4CCOCC4)OC
Method in brief: as §1

defactinib = compound: CNC(=O)c1ccc(Nc2ncc(C(F)(F)F)c(NCc3nccnc3N(C)S(C)(=O)=O)n2)cc1 [defactinib]
Method in brief: as §1

[7] = compound: CNc1nc(-c2ccc3c(N)n[nH]c3c2)cc(N2C[C@@H](C(=O)NC3CCCCC3)CC[C@H]2C)n1
Method in brief: as §1

encorafenib = compound: COC(=O)N[C@@H](C)CNc1nccc(-c2cn(C(C)C)nc2-c2cc(Cl)cc(NS(C)(=O)=O)c2F)n1 [encorafenib]
Method in brief: as §1

[8] = compound: COC(=O)[C@H](CCSC)NC(=O)C1=C(C=C(C=C1)NC[C@H](CS)N)C2=CC=CC=C2
Method in brief: as §1

alisertib = compound: COc1cc(Nc2ncc3c(n2)-c2ccc(Cl)cc2C(c2c(F)cccc2OC)=NC3)ccc1C(=O)O [alisertib]
Method in brief: as §1

[9] = compound: COc1cc2nc(-c3cc(F)ccc3O)nc(N[C@@H]3CNC[C@H]3C(C)(C)O)c2cc1OC
Method in brief: as §1

gefitinib = compound: COc1cc2ncnc(Nc3ccc(F)c(Cl)c3)c2cc1OCCCN1CCOCC1 [gefitinib]
Method in brief: as §1

Measured: log2 fold change

KATNAL1 (UniProt Q9BW62)
inactive: vemurafenib 0.054 | [1] 0.037 | barasertib 0.044 | [2] -0.117 | volasertib 0.024 | [3] -0.105 | [4] 0.084 | [5] -0.135 | saracatinib 0.013 | sotrastaurin 0.04 | alvocidib 0.063 | Tubastatin A -0.054 | [6] 0.051 | defactinib 0.027 | [7] 0.021 | encorafenib -0.137 | [8] -0.07 | alisertib 0 | [9] -0.001 | gefitinib -0.236

IQSEC2 (UniProt Q5JU85)
inactive: vemurafenib 0.074 | [1] 0.022 | barasertib 0.086 | [2] 0.057 | volasertib -0.044 | [3] 0.033 | [4] 0.011 | [5] 0.063 | saracatinib 0.009 | sotrastaurin 0.068 | alvocidib -0.006 | Tubastatin A -0.165 | [6] 0.037 | defactinib -0.028 | [7] -0.091 | encorafenib -0.076 | [8] 0.04 | alisertib 0.013 | [9] 0.067 | gefitinib 0.062

IPO9 (UniProt Q96P70)
inactive: vemurafenib -0.004 | [1] 0.008 | barasertib 0.003 | [2] -0.001 | volasertib 0.022 | [3] 0.007 | [4] -0.106 | [5] 0.058 | saracatinib -0.002 | sotrastaurin 0.008 | alvocidib -0.036 | Tubastatin A 0.009 | [6] 0.033 | defactinib -0.017 | [7] 0.007 | encorafenib 0.021 | [8] -0.008 | alisertib -0.005 | [9] 0.011 | gefitinib 0.01

ITGA5 (UniProt P08648)
inactive: vemurafenib 0.009 | [1] 0.014 | barasertib -0.055 | [2] 0.008 | volasertib 0.025 | [3] -0.008 | [4] 0.005 | [5] 0.03 | saracatinib 0.011 | sotrastaurin 0.018 | alvocidib -0.026 | Tubastatin A 0.032 | [6] 0.001 | defactinib -0.013 | [7] 0.004 | encorafenib 0.027 | [8] -0.036 | alisertib 0.001 | [9] -0.004 | gefitinib 0.019

KBTBD4 isoform 2 (UniProt Q9NVX7)
inactive: vemurafenib 0 | [1] 0.021 | barasertib 0.013 | [2] 0.063 | volasertib -0.022 | [3] 0.031 | [4] -0.04 | [5] -0.032 | saracatinib 0.086 | sotrastaurin 0.032 | alvocidib -0.064 | Tubastatin A -0.048 | [6] -0.016 | defactinib 0.024 | [7] 0.193 | encorafenib 0.048 | [8] -0.08 | alisertib -0.098 | [9] -0.046 | gefitinib 0.121

IQGAP2 (UniProt Q13576)
inactive: vemurafenib 0.018 | [1] 0.022 | barasertib 0.029 | [2] -0.052 | volasertib -0.077 | [3] 0.023 | [4] 0 | [5] -0.082 | saracatinib 0.012 | sotrastaurin 0.021 | alvocidib 0.031 | Tubastatin A -0.111 | [6] 0.03 | defactinib 0.006 | [7] -0.025 | encorafenib 0.039 | [8] 0.101 | alisertib -0.014 | [9] 0.002 | gefitinib -0.028

2 consecutive records from above:
KBTBD4 isoform 2 (UniProt Q9NVX7)
inactive: vemurafenib 0 | [1] 0.021 | barasertib 0.013 | [2] 0.063 | volasertib -0.022 | [3] 0.031 | [4] -0.04 | [5] -0.032 | saracatinib 0.086 | sotrastaurin 0.032 | alvocidib -0.064 | Tubastatin A -0.048 | [6] -0.016 | defactinib 0.024 | [7] 0.193 | encorafenib 0.048 | [8] -0.08 | alisertib -0.098 | [9] -0.046 | gefitinib 0.121

IQGAP2 (UniProt Q13576)
inactive: vemurafenib 0.018 | [1] 0.022 | barasertib 0.029 | [2] -0.052 | volasertib -0.077 | [3] 0.023 | [4] 0 | [5] -0.082 | saracatinib 0.012 | sotrastaurin 0.021 | alvocidib 0.031 | Tubastatin A -0.111 | [6] 0.03 | defactinib 0.006 | [7] -0.025 | encorafenib 0.039 | [8] 0.101 | alisertib -0.014 | [9] 0.002 | gefitinib -0.028

Remaining list, next part:

KAZN (UniProt Q674X7)
inactive: vemurafenib 0.047 | [1] -0.012 | barasertib 0 | [2] 0.002 | volasertib -0.008 | [3] -0.081 | [4] -0.044 | [5] 0.112 | saracatinib 0.016 | sotrastaurin -0.023 | alvocidib -0.078 | Tubastatin A -0.081 | [6] -0.027 | defactinib -0.036 | [7] 0 | encorafenib -0.039 | [8] -0.042 | alisertib 0.009 | [9] -0.02 | gefitinib 0.036

INTS4 (UniProt Q96HW7)
inactive: vemurafenib 0.023 | [1] -0.012 | barasertib 0.015 | [2] -0.004 | volasertib 0.003 | [3] -0.001 | [4] -0.025 | [5] -0.044 | saracatinib 0.023 | sotrastaurin 0.022 | alvocidib 0.006 | Tubastatin A -0.001 | [6] -0.024 | defactinib -0.023 | [7] 0.053 | encorafenib 0.005 | [8] -0.006 | alisertib 0.014 | [9] -0.027 | gefitinib -0.024

ITPR1 (UniProt Q14643)
inactive: vemurafenib 0.187 | [1] -0.136 | barasertib 0.049 | [2] -0.038 | volasertib -0.043 | [3] -0.013 | [4] -0.043 | [5] 0.116 | sotrastaurin -0.037 | alvocidib -0.044 | Tubastatin A 0.008 | defactinib -0.116 | encorafenib 0.052 | [8] 0.017 | [9] 0.069

INTS6 (UniProt Q9UL03)
inactive: vemurafenib -0.058 | [1] -0.097 | barasertib 0.03 | [2] -0.261 | volasertib 0.014 | [4] -0.077 | [5] 0.086 | saracatinib 0.107 | sotrastaurin -0.007 | alvocidib 0.009 | [6] -0.221 | defactinib 0.058 | [7] -0.064 | encorafenib 0.293 | [8] -0.001 | alisertib 0 | [9] 0.007 | gefitinib 0.109

ITGAE (UniProt P38570)
inactive: vemurafenib 0.108 | [1] -0.064 | barasertib -0.051 | [2] 0.166 | volasertib 0.051 | [3] -0.087 | [4] -0.533 | [5] 0.077 | alvocidib -0.092 | Tubastatin A 0.078 | [6] -0.108 | defactinib -0.165 | encorafenib 0.128 | [8] -0.065 | alisertib -0.07 | [9] 0.154 | gefitinib 0.058

KAT14 (UniProt Q9H8E8)
inactive: vemurafenib 0.032 | [1] -0.026 | barasertib 0.078 | [2] 0.119 | volasertib -0.018 | [6] 0.01 | defactinib -0.071 | encorafenib 0.074 | [8] -0.046 | [9] -0.086

KCTD2 (UniProt Q14681)
inactive: vemurafenib 0.083 | [1] 0.152 | barasertib -0.03 | [2] -0.051 | volasertib -0.26 | [4] 0.024 | [5] 0.1 | saracatinib -0.086 | sotrastaurin 0.008 | alvocidib 0.08 | defactinib 0.033 | [7] 0.052 | encorafenib 0.333 | [8] -0.007 | alisertib 0.018 | [9] -0.069 | gefitinib 0.062

KAT6B (UniProt Q8WYB5)
inactive: vemurafenib -0.025 | [1] 0.036 | barasertib -0.03 | [2] 0.045 | volasertib 0.026 | [3] -0.054 | [4] 0.055 | [5] 0.051 | saracatinib 0.139 | sotrastaurin -0.075 | alvocidib -0.183 | Tubastatin A -0.046 | [6] 0.195 | defactinib 0.014 | [7] -0.027 | encorafenib -0.034 | [8] 0.034 | [9] -0.103

KAT5 isoform 3 (UniProt Q92993)
inactive: vemurafenib -0.013 | [1] 0.132 | barasertib 0.016 | [2] 0 | volasertib -0.153 | [4] -0.03 | [5] 0.084 | saracatinib 0.059 | sotrastaurin 0.115 | alvocidib 0.067 | [6] 0.116 | defactinib -0.065 | [7] -0.231 | encorafenib -0.063 | [8] 0.081 | alisertib 0.03 | [9] 0.118 | gefitinib -0.02

IQGAP3 (UniProt Q86VI3)
inactive: vemurafenib 0.374 | [1] 0.138 | barasertib -0.2 | volasertib -0.078 | [3] 0.03 | [4] -0.027 | [5] 0.041 | saracatinib 0.038 | sotrastaurin 0.109 | alvocidib -0.014 | Tubastatin A -0.1 | [6] 0.069 | defactinib -0.196 | [7] -0.036 | alisertib -0.028 | [9] 0.102 | gefitinib -0.009

ISG20L2 (UniProt Q9H9L3)
inactive: vemurafenib -0.018 | [1] -0.01 | [2] 0.212 | volasertib -0.013 | [3] -0.043 | [4] 0.02 | [5] -0.038 | saracatinib -0.149 | alvocidib -0.058 | Tubastatin A 0.042 | [6] -0.088 | defactinib -0.108 | [7] 0.081 | encorafenib -0.044 | [8] 0.034 | alisertib -0.05 | [9] -0.011 | gefitinib 0.092

INTS8 (UniProt Q75QN2)
inactive: vemurafenib 0.016 | [1] 0.02 | barasertib -0.131 | [2] -0.024 | volasertib -0.061 | [3] 0.041 | [4] -0.075 | [5] 0.037 | saracatinib 0.09 | sotrastaurin 0.084 | alvocidib -0.011 | Tubastatin A -0.013 | [6] 0.083 | defactinib 0.084 | [7] 0.011 | encorafenib 0.098 | [8] -0.111 | alisertib -0.008 | [9] -0.033 | gefitinib -0.04
